One sequence from patent US20030232360 can be followed below.

By UniProt entry, the sequences of proteins in these tests, tags left out. Residues count along the entry.
UniProt Q15717, 2-326: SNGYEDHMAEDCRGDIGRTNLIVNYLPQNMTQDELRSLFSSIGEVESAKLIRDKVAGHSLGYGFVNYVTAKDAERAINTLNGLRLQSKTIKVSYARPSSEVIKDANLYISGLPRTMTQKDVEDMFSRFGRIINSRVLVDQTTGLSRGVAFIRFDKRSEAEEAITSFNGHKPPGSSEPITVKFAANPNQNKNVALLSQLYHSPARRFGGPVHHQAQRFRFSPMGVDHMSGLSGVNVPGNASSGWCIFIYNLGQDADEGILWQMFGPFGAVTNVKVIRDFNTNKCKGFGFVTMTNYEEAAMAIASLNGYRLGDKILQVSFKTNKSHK

The target of this data set is HuR (HuA, ELAV family), endogenous in HeLa S100 (UniProt Q15717). The data set is described as follows: competition with a labelled probe. Conditions: non-specific competitor; competition described as specific to ARE RNA; protein in an extract.

Where cells or extracts were used, other partners may take part. No signal at the amounts used counts as a negative.

Turning to “GUCACGUGUCACC [Non-specific competitor RNA]”, the binding result is reported as “no binding”.
